According to the supplement of paper PMC10849652:
The other results are listed elsewhere or left out.

Protein sequences, listed by entry. Tags and fused reporters are not part of them. Lines headed by an entry give the natural chain unless they say otherwise; changes in a name come on top.
UniProt Q9NUP1: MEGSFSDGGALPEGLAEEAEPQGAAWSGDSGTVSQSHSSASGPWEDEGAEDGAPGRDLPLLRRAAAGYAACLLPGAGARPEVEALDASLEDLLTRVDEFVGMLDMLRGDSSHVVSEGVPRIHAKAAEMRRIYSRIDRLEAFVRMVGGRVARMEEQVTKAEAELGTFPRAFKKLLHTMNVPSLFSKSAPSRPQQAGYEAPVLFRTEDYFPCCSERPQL
UniProt P35613: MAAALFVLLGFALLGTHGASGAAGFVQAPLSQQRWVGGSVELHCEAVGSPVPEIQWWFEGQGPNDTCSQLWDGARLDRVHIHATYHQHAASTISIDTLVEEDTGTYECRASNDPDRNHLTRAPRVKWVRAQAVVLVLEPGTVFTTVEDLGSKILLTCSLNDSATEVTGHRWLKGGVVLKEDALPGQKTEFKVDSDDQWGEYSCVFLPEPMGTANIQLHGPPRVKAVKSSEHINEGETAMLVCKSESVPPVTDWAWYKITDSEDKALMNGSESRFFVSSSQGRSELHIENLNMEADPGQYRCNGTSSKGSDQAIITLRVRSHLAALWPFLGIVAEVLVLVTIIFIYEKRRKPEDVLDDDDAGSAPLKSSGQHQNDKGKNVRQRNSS
UniProt Q92560: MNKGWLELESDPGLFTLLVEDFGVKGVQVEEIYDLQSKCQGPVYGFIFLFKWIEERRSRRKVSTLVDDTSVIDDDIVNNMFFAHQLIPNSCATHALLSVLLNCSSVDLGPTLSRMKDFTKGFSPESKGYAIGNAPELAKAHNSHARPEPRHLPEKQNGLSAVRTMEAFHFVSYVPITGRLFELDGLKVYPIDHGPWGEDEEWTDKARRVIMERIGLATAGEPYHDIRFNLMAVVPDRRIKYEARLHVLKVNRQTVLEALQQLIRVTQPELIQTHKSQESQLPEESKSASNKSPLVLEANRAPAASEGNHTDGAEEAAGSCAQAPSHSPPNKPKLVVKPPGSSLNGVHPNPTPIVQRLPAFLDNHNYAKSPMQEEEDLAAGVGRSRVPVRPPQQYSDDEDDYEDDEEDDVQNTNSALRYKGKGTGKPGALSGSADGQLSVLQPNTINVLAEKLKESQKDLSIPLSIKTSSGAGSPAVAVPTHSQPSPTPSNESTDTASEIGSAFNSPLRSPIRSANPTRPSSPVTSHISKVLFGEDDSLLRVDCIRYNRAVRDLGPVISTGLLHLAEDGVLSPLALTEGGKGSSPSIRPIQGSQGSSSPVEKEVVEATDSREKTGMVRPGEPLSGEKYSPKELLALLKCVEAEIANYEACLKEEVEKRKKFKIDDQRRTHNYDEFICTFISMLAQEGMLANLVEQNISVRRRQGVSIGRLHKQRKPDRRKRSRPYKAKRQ
UniProt Q07817, whole entry, looked up: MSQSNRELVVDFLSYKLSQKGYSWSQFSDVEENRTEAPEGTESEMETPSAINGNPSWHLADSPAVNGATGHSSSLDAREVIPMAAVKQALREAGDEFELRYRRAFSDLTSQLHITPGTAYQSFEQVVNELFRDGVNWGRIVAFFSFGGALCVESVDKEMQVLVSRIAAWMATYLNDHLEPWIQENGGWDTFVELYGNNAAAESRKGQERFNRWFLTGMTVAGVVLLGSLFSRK
UniProt Q6QNY0: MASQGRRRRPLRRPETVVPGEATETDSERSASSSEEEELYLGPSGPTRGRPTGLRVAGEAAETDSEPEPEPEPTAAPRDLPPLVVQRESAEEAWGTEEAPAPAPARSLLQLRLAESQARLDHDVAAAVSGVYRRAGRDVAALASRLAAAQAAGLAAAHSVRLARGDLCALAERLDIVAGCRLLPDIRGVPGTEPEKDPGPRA
UniProt O95999: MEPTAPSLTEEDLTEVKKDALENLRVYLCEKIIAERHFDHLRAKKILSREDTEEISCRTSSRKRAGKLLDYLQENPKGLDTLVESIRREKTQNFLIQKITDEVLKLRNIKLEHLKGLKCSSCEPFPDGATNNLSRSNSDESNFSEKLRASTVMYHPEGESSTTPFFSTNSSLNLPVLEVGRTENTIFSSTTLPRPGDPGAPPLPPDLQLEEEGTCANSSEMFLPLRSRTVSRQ
UniProt Q8N9N5: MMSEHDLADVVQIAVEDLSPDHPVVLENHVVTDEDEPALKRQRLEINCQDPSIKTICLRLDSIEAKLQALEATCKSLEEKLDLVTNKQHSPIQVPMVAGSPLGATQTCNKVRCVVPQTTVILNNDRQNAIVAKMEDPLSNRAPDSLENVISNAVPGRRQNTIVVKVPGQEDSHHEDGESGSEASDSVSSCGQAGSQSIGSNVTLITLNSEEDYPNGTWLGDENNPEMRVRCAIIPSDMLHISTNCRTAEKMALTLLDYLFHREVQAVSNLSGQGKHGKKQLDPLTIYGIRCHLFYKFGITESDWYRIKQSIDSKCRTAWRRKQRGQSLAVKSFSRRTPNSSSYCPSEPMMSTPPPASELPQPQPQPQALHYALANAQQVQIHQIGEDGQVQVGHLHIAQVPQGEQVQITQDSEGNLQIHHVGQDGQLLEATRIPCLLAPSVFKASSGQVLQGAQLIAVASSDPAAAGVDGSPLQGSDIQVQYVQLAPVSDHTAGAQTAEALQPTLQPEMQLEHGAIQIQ
UniProt P55957: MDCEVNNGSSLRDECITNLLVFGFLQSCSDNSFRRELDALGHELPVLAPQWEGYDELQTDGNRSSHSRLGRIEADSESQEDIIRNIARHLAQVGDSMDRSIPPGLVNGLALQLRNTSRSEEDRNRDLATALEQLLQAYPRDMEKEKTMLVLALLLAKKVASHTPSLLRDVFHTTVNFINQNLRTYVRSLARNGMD
UniProt Q8TDH9: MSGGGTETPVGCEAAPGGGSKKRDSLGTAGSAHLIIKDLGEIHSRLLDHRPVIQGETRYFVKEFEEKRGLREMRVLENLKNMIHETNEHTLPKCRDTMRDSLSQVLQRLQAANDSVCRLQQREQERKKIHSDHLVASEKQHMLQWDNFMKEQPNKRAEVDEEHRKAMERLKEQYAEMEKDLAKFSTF
UniProt O60512: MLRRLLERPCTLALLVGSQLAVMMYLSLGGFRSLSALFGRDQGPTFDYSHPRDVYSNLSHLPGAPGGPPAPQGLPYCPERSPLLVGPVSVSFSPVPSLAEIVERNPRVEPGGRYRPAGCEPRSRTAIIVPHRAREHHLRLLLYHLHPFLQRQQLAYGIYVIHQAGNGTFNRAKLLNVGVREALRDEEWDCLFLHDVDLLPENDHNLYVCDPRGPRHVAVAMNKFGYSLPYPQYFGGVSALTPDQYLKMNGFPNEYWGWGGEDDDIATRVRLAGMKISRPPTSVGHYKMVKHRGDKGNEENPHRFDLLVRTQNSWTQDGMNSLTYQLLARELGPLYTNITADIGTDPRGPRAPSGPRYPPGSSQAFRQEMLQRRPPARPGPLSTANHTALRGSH
UniProt Q9UHQ4: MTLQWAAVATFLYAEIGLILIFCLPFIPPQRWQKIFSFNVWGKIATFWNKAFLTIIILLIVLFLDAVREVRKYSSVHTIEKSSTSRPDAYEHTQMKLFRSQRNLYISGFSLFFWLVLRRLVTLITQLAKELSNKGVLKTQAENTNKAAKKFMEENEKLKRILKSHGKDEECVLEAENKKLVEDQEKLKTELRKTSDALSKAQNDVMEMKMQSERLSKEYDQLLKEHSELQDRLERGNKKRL
UniProt Q8WUW1: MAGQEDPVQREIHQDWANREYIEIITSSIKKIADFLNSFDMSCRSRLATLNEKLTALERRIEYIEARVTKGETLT
UniProt Q9UL15: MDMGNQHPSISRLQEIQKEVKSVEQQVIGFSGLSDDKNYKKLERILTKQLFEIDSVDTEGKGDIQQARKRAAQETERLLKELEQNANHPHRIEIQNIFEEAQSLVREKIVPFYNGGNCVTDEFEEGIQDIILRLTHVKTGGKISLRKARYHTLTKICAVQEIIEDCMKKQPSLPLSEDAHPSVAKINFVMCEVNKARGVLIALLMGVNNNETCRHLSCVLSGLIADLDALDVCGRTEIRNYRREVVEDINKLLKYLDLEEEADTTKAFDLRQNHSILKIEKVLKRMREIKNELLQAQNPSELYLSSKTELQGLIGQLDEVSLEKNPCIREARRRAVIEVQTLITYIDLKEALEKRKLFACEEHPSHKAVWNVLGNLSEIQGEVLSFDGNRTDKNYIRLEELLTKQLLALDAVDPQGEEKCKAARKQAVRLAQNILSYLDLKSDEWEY
UniProt P78537: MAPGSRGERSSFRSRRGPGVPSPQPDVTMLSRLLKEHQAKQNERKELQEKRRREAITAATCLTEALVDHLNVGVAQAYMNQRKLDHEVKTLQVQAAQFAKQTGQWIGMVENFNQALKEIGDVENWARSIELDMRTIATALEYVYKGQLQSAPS

Experiments:
Test in all cases: log2 fold change, soluble protein after heating vs DMSO (PISA); higher = thermal stabilisation; K562 lysate, 10 uM; active = over 0.2 and 3.5 SD of the protein, either way, in both replicates (recomputed)
[1] = compound: C#Cc1cccc(Nc2ncnc3cc(OCCOC)c(OCCOC)cc23)c1 [erlotinib]
Outline: (§1)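 To prepare the extract, K562 pellets were dounce-homogenised in PBS pH 7.4 with 1 mM MgCl2, giving crude material at 1 mg/mL protein. This was treated with 10 μM compound for 30 min, then heated in aliquots for 3 min over 48°C-58°C before pooling and addition of NP-40 to 0.5% at 4°C. Centrifugation at 21,000xg for 90 min left soluble protein in the supernatant, which TMTpro 16plex LC-MS/MS quantified with equalised channel sums. Results are log-two fold changes in thermal stability compared with solvent controls, from duplicates.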

[2] = compound: C/C(=N\NC(=O)C1=CC(=CC=C1)S(=O)(=O)N2CCOCC2)/C3=C(C=CC(=C3)Cl)O
Outline: as §1

[3] = compound: C1=CC(=CC=C1C2=NC3=C(N2)C=C(C=C3)C(=O)N)OC4=CC=C(C=C4)Cl
Outline: as §1

[4] = compound: C1=CC2=C(C=CC(=C2)/C=C\3/C(=O)NC(=NCC4=CC=CS4)S3)N=C1
Outline: as §1

[5] = compound: C1=CC2=NC=CN=C2C=C1/C=C/3\C(=O)NC(=O)S3
Outline: as §1

[6] = compound: C1=CC=C(C=C1)C2=NC(=C(N2)C3=CC=NC=C3)C4=CC(=C(C=C4)Cl)O
Outline: as §1

[7] = compound: C1=CC=C2C(=C1)C3=NNC4=CC=CC(=C43)C2=O
Outline: as §1

[8] = compound: C1CCN(C1)C(=O)NC2=CC=CC(=C2)NC3=NC=C(C(=N3)NCCC4=CN=CN4)Br
Outline: as §1

[9] = compound: C1CN(CCC1(CC2=CC=C(C=C2)Cl)N)C3=NC=NC4=C3C=CN4
Outline: as §1

[10] = compound: C1COCCN1CCN2C3=CC=CC=C3N=C2NC(=O)C4=CC(=CC=C4)[N+](=O)[O-] [IRAK-1-4 Inhibitor I]
Outline: as §1

[11] = compound: C=CC(=O)N1CCC[C@@H](n2nc(-c3ccc(Oc4ccccc4)cc3)c3c(N)ncnc32)C1 [ibrutinib]
Outline: as §1

[12] = compound: CC(=O)c1cnc2ccc(-c3cc(Cl)c(O)c(Cl)c3)nc2c1N[C@H]1CC[C@H](CN(C)C)CC1
Outline: as §1

[13] = compound: CC(C)(C)Cn1c(N)nc2ccc(-c3[nH]c(C(C)(C)C)nc3-c3ccc(F)cc3)nc21 [ralimetinib]
Outline: as §1

[14] = compound: CC(C)(O)CC(=O)NCCn1ccc2ncnc(Nc3ccc(Oc4cccc(C(F)(F)F)c4)c(Cl)c3)c21
Outline: as §1

[15] = compound: CC(C)C1=C2N=C(C=C(N2N=C1)NCC3=CC=CC=C3)NCCCCCCN
Outline: as §1

[16] = compound: CC1=C(C(CC(=O)N1)C2=CC=C(C=C2)C(F)(F)F)C(=O)NC3=C(C=C4C(=C3)C=NN4)F
Outline: as §1

[17] = compound: CC1=C(C2=C(C=C1)C(=O)C3=CC=CC=C3N2CCCN)C
Outline: as §1

[18] = compound: CC1=C(C=C(C=C1)NC(=O)C2=CC(=CC=C2)C(C)(C)C#N)NC3=CC4=C(C=C3)N=CN(C4=O)C
Outline: as §1

[19] = compound: CC1=C(C=C(C=C1)NC(=O)C2=CC(=CC=C2)N(C)C)NC(=O)C3=CC=C(C=C3)O
Outline: as §1

[20] = compound: CC1=CC=C(C=C1)SC2=C3C=C(SC3=CN=C2)C(=O)N
Outline: as §1

Measured: log2 fold change

BLOC1S4 (UniProt Q9NUP1)
inactive: [1] 0.023 | [2] -0.06 | [3] 0 | [4] -0.024 | [5] -0.022 | [6] 0.001 | [7] 0.027 | [8] 0.122 | [9] 0.099 | [10] 0 | [11] 0.067 | [12] -0.016 | [13] 0.012 | [14] -0.007 | [15] 0.002 | [16] 0.093 | [17] 0.027 | [18] 0.027 | [19] -0.003 | [20] 0.003

BSG (UniProt P35613)
inactive: [1] -0.037 | [2] 0.001 | [3] -0.014 | [4] 0.028 | [5] 0.038 | [6] -0.008 | [7] 0.001 | [8] 0.014 | [9] -0.022 | [10] -0.028 | [11] -0.029 | [12] 0.055 | [13] 0.02 | [14] 0.036 | [15] -0.013 | [16] 0.018 | [17] -0.012 | [18] -0.016 | [19] 0.019 | [20] 0.028

BAP1 (UniProt Q92560)
inactive: [1] -0.02 | [2] -0.034 | [3] 0.031 | [4] -0.014 | [5] -0.028 | [6] -0.02 | [7] 0.026 | [8] 0.026 | [9] 0.001 | [10] 0.009 | [11] 0.016 | [12] 0.013 | [13] 0.031 | [14] -0.003 | [15] 0.004 | [16] 0.057 | [17] -0.015 | [18] 0.035 | [19] -0.002 | [20] 0.01

BCL2L1 (UniProt Q07817)
inactive: [1] -0.029 | [2] -0.019 | [3] -0.004 | [4] 0.006 | [5] -0.005 | [6] -0.001 | [7] 0.014 | [8] 0.036 | [9] 0.031 | [10] 0.022 | [11] 0.004 | [12] 0 | [13] 0.03 | [14] -0.025 | [15] -0.032 | [16] -0.024 | [17] -0.003 | [18] 0.006 | [19] -0.022 | [20] -0.026

BLOC1S3 (UniProt Q6QNY0)
inactive: [1] 0.047 | [2] -0.058 | [3] 0.003 | [4] -0.01 | [5] -0.001 | [6] -0.014 | [7] 0.002 | [8] 0.007 | [9] -0.008 | [10] 0.061 | [11] 0.065 | [12] -0.004 | [13] -0.006 | [14] -0.05 | [15] 0.013 | [16] -0.026 | [17] -0.026 | [18] -0.008 | [19] -0.043 | [20] -0.015

BCL10 (UniProt O95999)
inactive: [1] -0.031 | [2] -0.044 | [3] -0.032 | [4] 0.037 | [5] -0.017 | [6] 0.041 | [7] 0.019 | [8] 0.008 | [9] -0.029 | [10] -0.02 | [11] 0.01 | [12] -0.047 | [13] 0 | [14] 0.039 | [15] 0.019 | [16] 0.002 | [17] 0.033 | [18] 0.003 | [19] 0.013 | [20] -0.018

BANP (UniProt Q8N9N5)
inactive: [1] 0.042 | [2] 0.088 | [3] 0.047 | [4] 0.064 | [5] -0.005 | [6] -0.015 | [7] 0.113 | [8] -0.01 | [9] -0.01 | [10] 0.065 | [11] -0.097 | [12] 0.057 | [13] 0.035 | [14] -0.058 | [15] -0.001 | [16] 0.008 | [17] -0.009 | [18] -0.018 | [19] 0.037 | [20] 0.072

BCL7C isoform 2 (UniProt Q8WUZ0)
inactive: [1] -0.034 | [2] 0.035 | [3] -0.045 | [4] 0.02 | [5] -0.041 | [6] 0.02 | [7] -0.043 | [8] -0.051 | [9] -0.013 | [10] -0.043 | [11] 0.031 | [12] 0.048 | [13] 0.04 | [14] 0.048 | [15] -0.033 | [16] 0.061 | [17] -0.063 | [18] -0.042 | [19] 0.05 | [20] 0.023

BID isoform 2 (UniProt P55957)
inactive: [1] -0.016 | [2] -0.019 | [3] 0.015 | [4] 0.013 | [5] 0.087 | [6] 0.01 | [7] -0.007 | [8] -0.009 | [9] 0.048 | [10] 0.024 | [11] 0.132 | [12] -0.006 | [13] 0.008 | [14] -0.035 | [15] -0.014 | [16] 0 | [17] -0.078 | [18] 0.031 | [19] 0.006 | [20] -0.013

BLOC1S5 (UniProt Q8TDH9)
inactive: [1] -0.027 | [2] -0.045 | [3] 0.011 | [4] 0.041 | [5] 0.004 | [6] 0.024 | [7] 0.008 | [8] -0.006 | [9] -0.019 | [10] 0.045 | [11] 0.052 | [12] -0.008 | [13] -0.02 | [14] -0.006 | [15] 0.014 | [16] 0.027 | [17] -0.032 | [18] 0.003 | [19] -0.01 | [20] -0.002

B4GALT3 (UniProt O60512)
inactive: [1] -0.041 | [2] -0.096 | [3] -0.081 | [4] 0.043 | [5] 0.07 | [6] -0.066 | [7] -0.005 | [8] 0.098 | [9] 0.107 | [10] -0.041 | [11] 0.001 | [12] -0.169 | [13] 0.043 | [14] -0.062 | [15] 0.019 | [16] 0.007 | [17] 0.028 | [18] -0.09 | [19] 0.043 | [20] 0.005

BCAP29 isoform 2 (UniProt Q9UHQ4)
inactive: [1] -0.035 | [2] 0.033 | [3] -0.058 | [4] -0.005 | [5] -0.015 | [6] -0.026 | [7] 0.089 | [8] -0.022 | [9] -0.024 | [10] -0.042 | [11] 0.078 | [12] -0.014 | [13] -0.012 | [14] 0.061 | [15] -0.018 | [16] 0.005 | [17] 0 | [18] -0.038 | [19] 0.006 | [20] -0.032

BRK1 isoform 2 (UniProt Q8WUW1)
inactive: [1] 0.032 | [2] -0.03 | [3] -0.09 | [4] 0.088 | [5] -0.059 | [6] -0.025 | [7] 0.038 | [8] -0.004 | [9] 0.086 | [10] -0.047 | [11] 0.087 | [12] -0.083 | [13] 0.001 | [14] 0.03 | [15] -0.039 | [16] -0.028 | [17] -0.008 | [18] -0.076 | [19] -0.048 | [20] 0.031

BAG5 isoform 2 (UniProt Q9UL15)
inactive: [1] 0.031 | [2] 0 | [3] 0.019 | [4] -0.068 | [5] -0.013 | [6] -0.001 | [7] 0.027 | [8] -0.012 | [9] -0.016 | [10] 0.01 | [11] 0.049 | [12] -0.014 | [13] 0.033 | [14] -0.096 | [15] -0.04 | [16] 0.037 | [17] -0.02 | [18] -0.004 | [19] 0.04 | [20] -0.017

BLOC1S1 (UniProt P78537)
inactive: [1] 0.008 | [2] -0.035 | [3] 0.007 | [4] 0.057 | [5] -0.007 | [6] 0.034 | [7] -0.038 | [8] -0.003 | [9] -0.004 | [10] -0.043 | [11] 0.078 | [12] -0.06 | [13] 0.044 | [14] -0.001 | [15] -0.092 | [16] -0.111 | [17] 0.015 | [18] 0.021 | [19] -0.043 | [20] -0.021

Quoted from above (two entries):
B4GALT3 (UniProt O60512)
inactive: [1] -0.041 | [2] -0.096 | [3] -0.081 | [4] 0.043 | [5] 0.07 | [6] -0.066 | [7] -0.005 | [8] 0.098 | [9] 0.107 | [10] -0.041 | [11] 0.001 | [12] -0.169 | [13] 0.043 | [14] -0.062 | [15] 0.019 | [16] 0.007 | [17] 0.028 | [18] -0.09 | [19] 0.043 | [20] 0.005

BCAP29 isoform 2 (UniProt Q9UHQ4)
inactive: [1] -0.035 | [2] 0.033 | [3] -0.058 | [4] -0.005 | [5] -0.015 | [6] -0.026 | [7] 0.089 | [8] -0.022 | [9] -0.024 | [10] -0.042 | [11] 0.078 | [12] -0.014 | [13] -0.012 | [14] 0.061 | [15] -0.018 | [16] 0.005 | [17] 0 | [18] -0.038 | [19] 0.006 | [20] -0.032
